This is one part of the list. The main result of the screen is listed elsewhere. These columns were measured beside it and carry no call. The list favours compounds with an active or inconclusive main result. Words in brackets tell the shape of the fitted curve; partial curves, single points and poor fits give uncertain potencies.

The nature of this test: qHTS Assay for Modulators of Lamin A Splicing. The note with it: HeLa LMNA splicing GFP/RFP minigene ratio, 48 h. The procedure, abridged:
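S3 HeLa stable clones carrying a lamin A-EGFP splicing minigene plus DsRed2 were seeded at 600 cells/well in Opti-MEM with 2% FBS, pin-dosed and incubated 48 h at 37°C. Acumen cytometry (488 nm) gave the GFP/RFP total-intensity ratio.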
(In general: Quantitative high-throughput screening tests each substance at several concentrations.)

Setting [1] is: measured here: RFP viability control channel.
Setting [2] is: measured here: GFP splicing reporter channel.

Consider `c1ccc2sc(-c3ccc4c(c3)OCO4)nc2c1`, for which, under setting [1], the AC50 was 11.2 µM [rising, partial curve, poor fit].
For `CCc1ccccc1NC(=O)CN1C(=O)c2cccnc2Oc2ccc(Cl)cc21`, the AC50 under setting [2] is 0.0224 µM [falling, full curve, poor fit].
For `N#C/C(=C\c1cc2ccccc2nc1N1CCOCC1)C(=O)Nc1ccc(N2CCOCC2)cc1`, the AC50 by setting is: under setting [2], 35.5 µM [rising, single point]; under setting [1], 35.5 µM [rising, single point].
On to `CC(C)CNS(=O)(=O)c1ccc(OCC(=O)Nc2ccc3c(c2)OCCO3)cc1`, for which, under setting [2], the AC50 was 35.5 µM [rising, single point].
`Cc1ccc(C)c(NC(=O)C(=O)NCCc2csc3nc(-c4ccccc4C)nn23)c1`: the half-maximal activity concentration (AC50) runs as follows: under setting [2], 25.1 µM [falling, partial curve, poor fit]; under setting [1], 3.98 µM [falling, partial curve, poor fit].
As to `CCN(CC)S(=O)(=O)c1ccc(S(=O)(=O)Nc2ccc(C(=O)N3CCCC3)cc2)cc1`, under setting [1], the half-maximal activity concentration (AC50) is 10 µM [rising, partial curve, poor fit].
`O=c1c(Cc2c(F)cccc2Cl)c(O)ccn1CC1CCCO1` (stereo unspecified): the AC50 under setting [2] was 0.398 µM [rising, full curve, poor fit].
As to `COc1ccc(-c2oc(NC(=O)CCl)c(C#N)c2-c2ccc(OC)cc2)cc1`, the AC50 was 35.5 µM [falling, single point] under setting [2] and 35.5 µM [falling, single point] under setting [1].
Turning to `CC(C)(C)c1ccc(C(=O)Nc2cccc([N+](=O)[O-])c2)cc1`, the AC50 is, setting by setting: under setting [2], 15.8 µM [rising, partial curve]; under setting [1], 35.5 µM [rising, single point].
Turning to `CCOC(=O)c1[nH]c2ccccc2c1NC(=S)Nc1ccccc1`, the concentration at half-maximal activity (AC50) under setting [2] was 1.41 µM [falling, single point].
`O=C(CC(NC(=O)OCc1ccccc1)C(=O)O)OCc1ccccc1` (stereo unspecified): the AC50 under setting [1] was 0.794 µM [rising, single point].
As to `COCCN(CCOC)Cc1c(O)ccc2c3c(c(=O)oc12)CCC3`, the AC50 was 15.8 µM [rising, single point] under setting [2] and 15.8 µM [rising, single point] under setting [1].
In the case of `O=C(CCC1N=C2c3ccccc3N=C(SCc3ccc(Cl)cc3)N2C1=O)NCc1ccco1` (stereo unspecified), the AC50 under setting [2] was 35.5 µM [rising, partial curve, poor fit].
With `Cc1c(NC(=O)COC(=O)c2cc(-c3ccc(-c4ccccc4)cc3)nc3ccccc23)c(=O)n(-c2ccccc2)n1C`, the AC50 under setting [1] is 0.708 µM [rising, full curve].
`O=[N+]([O-])c1[nH]cnc1/C=C/c1ccccc1`: under setting [2], the AC50 was 10 µM [rising, single point].
Turning to `COc1ccc2nc3sc(C(=O)NCCCN4CCc5ccccc5C4)cc3cc2c1`, the concentration at half-maximal activity (AC50) under setting [1] was 31.6 µM [rising, single point].
`COC(=O)c1cc(C)sc1NC(=O)C1C2C=CC(CC2)C1C(=O)O` (stereo unspecified): the AC50 by setting is: under setting [2], 1.26 µM [falling, partial curve, poor fit]; under setting [1], 1.26 µM [falling, partial curve].
For `COc1ccc(Cn2c(SCC(N)=O)nc3c(sc4ccccc43)c2=O)cc1`, the AC50 by setting is: under setting [2], 35.5 µM [falling, single point]; under setting [1], 35.5 µM [falling, partial curve, poor fit].
Turning to `COCCn1c(SCc2cnc(-c3ccccc3)s2)nnc1-c1ccncc1`, the AC50 under setting [1] is 12.6 µM [rising, partial curve].
On to `CN(c1ccc(C(=O)N2CCOCC2)cc1[N+](=O)[O-])C1CCCCC1`, for which the AC50 is 11.2 µM [rising, single point] under setting [2] and 20 µM [rising, single point] under setting [1].
As to `O=C1CC(N(CCc2ccccc2)C(=S)Nc2ccccc2)C(=O)N1c1ccc(Br)cc1` (stereo unspecified), the AC50 is 35.5 µM [falling, single point] under setting [2] and 35.5 µM [falling, single point] under setting [1].
With `O=C1OCCC1Sc1nc2ccccc2c(=O)n1Cc1ccccc1` (stereo unspecified), the AC50 under setting [2] is 0.0794 µM [rising, full curve, poor fit].
For `Cc1ccc2[nH]c(CSc3nnc(COc4ccccc4C)n3C)cc(=O)c2c1`, the AC50 under setting [1] is 0.0251 µM [falling, full curve, poor fit].
On the same count and under the same terms, the figure for `Cc1cccc(NC(=O)c2ccc(N3CCCCC3)c([N+](=O)[O-])c2)n1` is 10 µM [rising, partial curve].
For `Cc1ccc(-n2[nH]c(C)c(/C=N/NC(=O)c3cccc([N+](=O)[O-])c3)c2=O)cc1C`, the AC50 under setting [1] was 3.55 µM [rising, full curve].
Same read-out and setting: with `Cc1cc(OCC(=O)Nc2ccncc2)ccc1Br` the figure was 11.2 µM [rising, partial curve].
Take `CCc1ccc(Nc2nnc(SCC(=O)NCCN3C(=O)CSC3=O)s2)cc1`: under setting [2], the AC50 is 35.5 µM [rising, single point].
Take `O=C(O)Cn1cc(/C=C2\SC(=O)N(c3ccccc3)C2=O)c2ccccc21`: the AC50 is 0.891 µM [falling, partial curve, poor fit] under setting [2] and 0.158 µM [falling, full curve, poor fit] under setting [1].
In the case of `Cc1ccccc1OCC(O)CN(Cc1ccccc1O)C1CCCCC1` (stereo unspecified), the AC50 under setting [2] was 0.0708 µM [falling, full curve, poor fit].
As to `O=C1c2cnc3nc(SCc4ccccc4)nn3c2CC2c3ccccc3CCN12` (stereo unspecified), the concentration at half-maximal activity (AC50) under setting [1] is 3.98 µM [falling, single point].
As to `CN(C)CCNc1ncnc2c1sc1nc(N3CCOCC3)c3c(c12)CC(C)(C)SC3`, the AC50 is 15.8 µM [falling, single point] under setting [2] and 35.5 µM [falling, single point] under setting [1].
With `COc1cc(S(=O)(=O)Nc2cc(C)cc(C)c2)ccc1F`, the AC50 under setting [2] was 14.1 µM [rising, partial curve] and the AC50 under setting [1] is 25.1 µM [rising, partial curve].
Regarding `CCOc1ccc(Sc2cc(C(=O)NCCc3ccccc3)c3ccccc3n2)cc1`, the AC50 reads like this: under setting [2], 2.24 µM [rising, partial curve]; under setting [1], 3.98 µM [rising, single point].
In the case of `S=C(NCCc1ccccc1)NCc1ccccc1Cl`, the AC50 under setting [2] is 28.2 µM [rising, single point] and the AC50 under setting [1] is 35.5 µM [rising, single point].
Turning to `CCOc1ccc(CN2CCN(Cc3cccc4c3OCO4)CC2CCO)cc1` (stereo unspecified), the AC50 is, setting by setting: under setting [2], 3.55 µM [falling, full curve, poor fit]; under setting [1], 3.55 µM [falling, full curve, poor fit].
With `COc1ccc(C(c2c(O)ccc3ccccc23)N2CCOCC2)c(OC)c1` (stereo unspecified), the AC50 under setting [1] was 25.1 µM [falling, partial curve, poor fit].
In the case of `CCOc1ccc(NC(=O)CSC2=Nc3ccccc3C3=NC(CC(=O)NCc4ccco4)C(=O)N23)cc1` (stereo unspecified), the AC50 under setting [2] was 0.0562 µM [falling, full curve, poor fit] and the AC50 under setting [1] is 0.0891 µM [falling, full curve].
Consider `CCN(CC)c1ccc(/C=C2\NC(=O)NC2=O)cc1`, for which the AC50 reads like this: under setting [2], 3.16 µM [falling, full curve]; under setting [1], 8.91 µM [falling, partial curve, poor fit].
Turning to `CC(C)(C)C(=O)NC(=S)Nc1sc2c(c1C(N)=O)CCC2`, under setting [1], the AC50 was 0.0794 µM [falling, full curve, poor fit].
Turning to `CN(C)CCCN1C(=O)c2cccc3c(Br)ccc(c23)C1=O`, the AC50 under setting [2] is 25.1 µM [falling, single point] and the AC50 under setting [1] was 35.5 µM [falling, single point].
As to `CC(C)c1ccc(NC(=O)c2cc(S(=O)(=O)NCc3ccccc3Cl)ccc2F)cc1`, the AC50 reads like this: under setting [2], 10 µM [falling, partial curve, poor fit]; under setting [1], 20 µM [falling, partial curve, poor fit].
Take `O=C(CCN1C(=O)c2ccc([N+](=O)[O-])cc2C1=O)Nc1nccs1`: the half-maximal activity concentration (AC50) under setting [1] was 0.02 µM [falling, full curve, poor fit].
Consider `Cc1noc(C)c1S(=O)(=O)N1CCC(C(=O)N2CCN(c3ccc(Cl)cc3)CC2)CC1`, for which the AC50 under setting [1] was 35.5 µM [rising, single point].
Same read-out and setting: with `COC(=O)c1c(CCl)noc1C(=O)NC(C)C` the figure was 35.5 µM [rising, single point]; with `Cc1ccc(S(=O)(=O)N2CCN(c3ccc(C(F)(F)F)cc3[N+](=O)[O-])CC2)cc1`, 7.08 µM [rising, partial curve].
With `Cc1nnc(C)n1/N=C/c1ccc(C(C)C)cc1`, the concentration at half-maximal activity (AC50) under setting [2] is 22.4 µM [rising, single point].
The same measure, in the same setting: the figure for `CCOC(=O)c1ccc(NC(=S)N(CCCN2CCN(CC)CC2)Cc2ccco2)cc1` is 0.0794 µM [falling, full curve, poor fit].
Turning to `O=[N+]([O-])c1cc(C(F)(F)F)ccc1NCCNC(=S)Nc1ccc(Cl)cc1`, the AC50 under setting [2] was 28.2 µM [falling, single point] and the AC50 under setting [1] was 17.8 µM [falling, single point].
For `C=CCn1c(SCCCc2ccccc2)nc2c1c(=O)[nH]c(=O)n2C`, the AC50 reads like this: under setting [2], 31.6 µM [rising, single point]; under setting [1], 35.5 µM [rising, single point].
Regarding `CC1COC(C)(CC(=O)NN2C(=O)c3ccccc3C2=O)O1` (stereo unspecified), under setting [1], the AC50 is 1.26 µM [rising, single point].
Still for that read-out and setting: the figure for `CC(=O)c1cc2c(cc1NC(=O)CSc1nc3ccc(C)cc3[nH]1)OCO2` is 0.0224 µM [rising, full curve, poor fit].
Consider `Clc1ccc2nc(SCc3nnc(-c4ccccc4)o3)[nH]c2c1`, for which the AC50 runs as follows: under setting [2], 11.2 µM [rising, partial curve, poor fit]; under setting [1], 12.6 µM [rising, partial curve].
In the case of `COC(=O)C1=C(C)N(Cc2ccco2)C(=O)/C1=C\c1ccc([N+](=O)[O-])cc1`, the AC50 under setting [2] is 11.2 µM [falling, single point] and the AC50 under setting [1] is 20 µM [falling, partial curve, poor fit].

For orientation: AC50 means the concentration giving half of the maximal activity seen.

For the origin of these results see PubChem BioAssay AID1487 (National Center for Advancing Translational Sciences (NCATS), 2009).
